# Columns and labels:
# MDBK cells = test: Rotenone-sensitive oxygen consumption rate in intact MDBK cells; assay type: cell-based, Bos taurus; conditions: for matrix biguanide concentration, mean: 40 mins exposure, external concentration IC50/10; for fold accumulation: matrix vs external (IC50/10) biguanide concentration
# Description: 143B (CRL-8303 from ATCC), HepG2 (85011430 from The Health Protection Agency), and MDBK (CCL-22 from ATCC) cells were grown on Dulbecco’s modified Eagle’s medium (DMEM) supplemented with 10 % fetal bovine serum (FBS, Thermo Fisher Scientific) at 37 °C in 5 % CO2. All cells were confirmed as negative for mycoplasma.
# Oxygen consumption rates (OCRs) were measured using a Seahorse XF96 extracellular flux analyzer at 37 °C. For intact cell measurements, 1.4 × 10^4 143B, HepG2, or MDBK cells were plated (per well) in DMEM containing 10 % FBS into Seahorse Bioscience Inc. XF96 plates and incubated for ~12 h at 37 °C in 5 % CO2. Then, the medium was exchanged for assay buffer containing DMEM, 4.5 g L^−1 glucose, 1 mM pyruvate, 32 mM NaCl, 2 mM GlutaMAX, 15 mg L^−1 phenol red, and 20 mM HEPES (pH 7.4 at 37 °C) and the cells placed in a CO2-free incubator at 37 °C for 30 min. Basal oxygen consumption rates were established before the addition of biguanides at one-tenth of their IC50 (IC50/10), and followed for ~ 6 h before the addition of rotenone (2 μM).
# (§1) Rotenone-sensitive OCRs were calculated by subtracting the rotenone-insensitive rates (determined at the end of the experiment). OCRs were normalized by dividing by the OCR recorded immediately prior to the addition of biguanide. For rate of uptake calculations, the OCRs at time points after biguanide addition were divided by the OCRs at the same time points in control experiments. Data from wells with failed port injections were excluded from the analyses. The respiratory control ratio (RCR) values (state III versus state IV respiration) were ~11 and ~6 for permeabilized MDBK and 143B cells, respectively.
# permeabilized MDBK cells = test: ADP-stimulated rotenone-sensitive OCR in permeabilized MDBK cells; assay type: cell-based, Bos taurus; conditions: MDBK permeabilised cells; for matrix biguanide concentration, mean: external concentration IC50/5; for fold accumulation: matrix vs external (IC50/5) biguanide concentration
# Description: For permeabilized cell experiments, cells were seeded into XF96 plates at 0.9–1.1 × 10^4 per well and incubated for 48 h at 37 °C in 5 % CO2. Then, the growth medium was exchanged for assay buffer containing 3 nM plasma membrane permeabilizer ‘PMP’ (Seahorse Biosciences Inc.), 10 mM glutamate, 10 mM malate, 220 mM mannitol, 70 mM sucrose, 10 mM KH2PO4, 5 mM MgCl2, 1 mM EGTA, 0.2 % fatty acid-free bovine serum albumin (BSA), and 2 mM HEPES (pH 7.4 at 37 °C). […] The biguanides were allowed to accumulate for 30 min, then respiration was […] by the addition of 4 mM ADP. Rotenone was added (2 μM) at the end of the experiment.
# as §1
smiles,measurement,setting,value
"NC(N)=NC(N)=NCCc1ccc(Cl)cc1 [compound 1, 2-[2-(4-chlorophenyl)ethyl]-1-(diaminomethylidene)guanidine]","matrix biguanide concentration, mean",MDBK cells,0.002 mM
same,fold accumulation,MDBK cells,0.053
same,"matrix biguanide concentration, mean",permeabilized MDBK cells,3.117 mM
same,fold accumulation,permeabilized MDBK cells,39.154
"N=C(N)NC(N)=Nc1ccccc1 [compound 2, phenyl biguanide]","matrix biguanide concentration, mean",MDBK cells,0.001 mM
same,fold accumulation,MDBK cells,0.024
same,"matrix biguanide concentration, mean",permeabilized MDBK cells,0.000 mM
same,fold accumulation,permeabilized MDBK cells,0.000
"NC(N)=NC(N)=NCc1ccccc1 [compound 3, 2-benzyl-1-(diaminomethylidene)guanidine]","matrix biguanide concentration, mean",MDBK cells,0.028 mM
same,fold accumulation,MDBK cells,0.288
same,"matrix biguanide concentration, mean",permeabilized MDBK cells,44.099 mM
same,fold accumulation,permeabilized MDBK cells,227.401
"CC(C)N=C(N)N=C(N)N [compound 4, 1-(diaminomethylidene)-2-(propan-2-yl)guanidine]","matrix biguanide concentration, mean",MDBK cells,2.783 mM
same,fold accumulation,MDBK cells,0.965
same,"matrix biguanide concentration, mean",permeabilized MDBK cells,192.961 mM
same,fold accumulation,permeabilized MDBK cells,33.453
"CC(C)N=C(N)N=C(N)NC(C)C [compound 5, N-(propan-2-yl)-1-3-(propan-2-yl)carbamimidamidomethanimidamide]","matrix biguanide concentration, mean",MDBK cells,0.002 mM
same,fold accumulation,MDBK cells,0.064
same,"matrix biguanide concentration, mean",permeabilized MDBK cells,0.008 mM
same,fold accumulation,permeabilized MDBK cells,0.119
"[H]/N=C(\N/C(=N/[H])Nc1ccc(Cl)cc1)NC(C)C [proguanil, reference compound]","matrix biguanide concentration, mean",MDBK cells,0.000557 mM
same,fold accumulation,MDBK cells,0.342
same,"matrix biguanide concentration, mean",permeabilized MDBK cells,0.000 mM
same,fold accumulation,permeabilized MDBK cells,0.000
